This is an account of results in patent publication US20210330742A1.

Protein sequences, listed by entry. Tags and fused reporters are not part of them. Residues count along the entry.
UniProt Q99496, residues 2-336: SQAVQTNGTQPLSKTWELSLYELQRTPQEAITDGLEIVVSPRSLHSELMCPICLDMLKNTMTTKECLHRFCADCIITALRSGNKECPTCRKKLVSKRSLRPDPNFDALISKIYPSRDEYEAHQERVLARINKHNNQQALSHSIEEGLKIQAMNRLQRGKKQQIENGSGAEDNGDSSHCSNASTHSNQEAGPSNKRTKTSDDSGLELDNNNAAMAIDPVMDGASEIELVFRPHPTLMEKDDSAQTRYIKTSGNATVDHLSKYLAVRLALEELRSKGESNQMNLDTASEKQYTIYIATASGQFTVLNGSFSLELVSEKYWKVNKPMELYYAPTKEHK
UniProt P24385: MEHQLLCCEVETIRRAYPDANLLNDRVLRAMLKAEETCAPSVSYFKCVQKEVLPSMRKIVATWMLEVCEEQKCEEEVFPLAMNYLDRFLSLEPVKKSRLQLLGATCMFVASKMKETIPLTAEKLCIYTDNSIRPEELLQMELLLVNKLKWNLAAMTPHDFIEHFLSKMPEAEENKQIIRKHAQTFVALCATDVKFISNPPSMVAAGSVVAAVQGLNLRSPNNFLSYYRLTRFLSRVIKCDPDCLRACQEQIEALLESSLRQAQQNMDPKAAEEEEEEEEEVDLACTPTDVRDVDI

No constants are given. Whether binding was seen depends on the method and setting. In cells and extracts the contact can be indirect. Some results given as binding are weak or reduced against the parent protein; the word gives no strength.

This experiment has as its target RNF2 (UniProt Q99496). Put plainly: co-IP and immunoblot, time course after serum stimulation. In general terms: A western blot detects proteins with antibodies after separation by electrophoresis.

Consider Cyclin D1 (from UniProt P24385 1-295), for which the binding result was “binds”.
